Source: publication PMC12329970
No constants are given. Whether binding was seen depends on the method and setting. Binding seen in cells or lysates may run through a third protein. Some results given as binding are weak or reduced against the parent protein; the word gives no strength.

Chains of the proteins cited; added tags and fusions are not shown.
UniProt P02340: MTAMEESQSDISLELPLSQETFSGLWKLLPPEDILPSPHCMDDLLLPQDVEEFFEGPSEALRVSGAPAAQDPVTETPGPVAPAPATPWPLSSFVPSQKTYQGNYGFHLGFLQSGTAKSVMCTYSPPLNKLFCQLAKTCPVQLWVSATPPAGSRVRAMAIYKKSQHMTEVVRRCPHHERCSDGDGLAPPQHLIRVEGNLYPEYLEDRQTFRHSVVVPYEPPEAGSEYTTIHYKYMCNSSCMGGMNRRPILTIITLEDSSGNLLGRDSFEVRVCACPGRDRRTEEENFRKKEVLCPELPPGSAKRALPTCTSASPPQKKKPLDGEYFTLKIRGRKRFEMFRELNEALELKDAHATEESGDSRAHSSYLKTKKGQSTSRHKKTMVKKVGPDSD

Biological target: HA-P53 (UniProt P02340)
Assay: co-IP; HEK-293T cells transiently transfected with pKH3-HA-P53; RIPA lysis buffer with protease inhibitors; HA or hnRNPK antibody, protein A/G agarose, 4 °C; four washes with lysis buffer; western blot

binding: binds
Substance: hnRNPK (from UniProt P61978 1-463)
